According to the supplement of paper PMC10849652:
The list shows a part of the results.

By UniProt entry, the sequences of proteins in these tests, tags left out. Where a name states a change or a piece, a line headed by the entry shows the natural chain unless it says otherwise.
UniProt Q9BVS4: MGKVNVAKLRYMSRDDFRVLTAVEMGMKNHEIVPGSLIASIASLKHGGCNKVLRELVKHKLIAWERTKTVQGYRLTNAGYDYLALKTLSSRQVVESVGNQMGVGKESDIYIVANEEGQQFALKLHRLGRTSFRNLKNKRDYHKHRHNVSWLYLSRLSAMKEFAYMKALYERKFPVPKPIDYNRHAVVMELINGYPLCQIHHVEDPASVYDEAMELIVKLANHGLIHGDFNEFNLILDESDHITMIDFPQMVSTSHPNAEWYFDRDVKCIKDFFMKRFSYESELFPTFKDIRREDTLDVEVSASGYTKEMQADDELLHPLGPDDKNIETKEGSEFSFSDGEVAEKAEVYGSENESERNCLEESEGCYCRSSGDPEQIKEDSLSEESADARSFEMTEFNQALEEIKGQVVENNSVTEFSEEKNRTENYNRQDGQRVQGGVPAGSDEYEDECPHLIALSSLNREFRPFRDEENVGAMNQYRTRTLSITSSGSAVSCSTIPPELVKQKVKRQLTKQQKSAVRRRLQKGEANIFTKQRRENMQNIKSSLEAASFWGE
UniProt P22670: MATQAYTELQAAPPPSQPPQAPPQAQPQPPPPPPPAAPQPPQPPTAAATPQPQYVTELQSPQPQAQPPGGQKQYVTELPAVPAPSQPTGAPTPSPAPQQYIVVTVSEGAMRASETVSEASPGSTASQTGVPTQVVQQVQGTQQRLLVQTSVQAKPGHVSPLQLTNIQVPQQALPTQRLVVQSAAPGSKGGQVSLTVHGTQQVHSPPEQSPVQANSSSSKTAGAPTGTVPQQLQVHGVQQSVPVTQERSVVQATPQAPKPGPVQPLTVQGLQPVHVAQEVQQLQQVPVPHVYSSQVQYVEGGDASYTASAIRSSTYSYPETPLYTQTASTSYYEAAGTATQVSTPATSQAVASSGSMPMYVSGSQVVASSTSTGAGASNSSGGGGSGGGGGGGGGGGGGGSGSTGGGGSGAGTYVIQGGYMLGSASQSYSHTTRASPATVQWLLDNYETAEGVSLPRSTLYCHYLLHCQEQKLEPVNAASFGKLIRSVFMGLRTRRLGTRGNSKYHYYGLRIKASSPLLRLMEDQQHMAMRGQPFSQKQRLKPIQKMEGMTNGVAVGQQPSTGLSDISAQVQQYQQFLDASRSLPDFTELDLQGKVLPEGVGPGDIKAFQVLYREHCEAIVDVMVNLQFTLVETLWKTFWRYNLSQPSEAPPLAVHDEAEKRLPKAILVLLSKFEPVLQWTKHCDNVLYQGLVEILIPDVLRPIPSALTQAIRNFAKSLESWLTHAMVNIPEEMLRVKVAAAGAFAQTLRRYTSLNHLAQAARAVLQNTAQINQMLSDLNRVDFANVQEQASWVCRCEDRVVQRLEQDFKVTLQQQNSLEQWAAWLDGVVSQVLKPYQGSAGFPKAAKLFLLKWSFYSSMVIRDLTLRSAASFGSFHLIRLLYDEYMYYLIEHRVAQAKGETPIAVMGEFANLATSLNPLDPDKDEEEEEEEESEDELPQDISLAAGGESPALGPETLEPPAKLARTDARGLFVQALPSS
UniProt Q9P0P0: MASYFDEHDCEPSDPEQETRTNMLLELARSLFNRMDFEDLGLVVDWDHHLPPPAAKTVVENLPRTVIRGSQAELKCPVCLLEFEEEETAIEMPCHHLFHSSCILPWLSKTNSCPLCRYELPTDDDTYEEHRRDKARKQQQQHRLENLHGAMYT
UniProt P35250, whole entry, looked up: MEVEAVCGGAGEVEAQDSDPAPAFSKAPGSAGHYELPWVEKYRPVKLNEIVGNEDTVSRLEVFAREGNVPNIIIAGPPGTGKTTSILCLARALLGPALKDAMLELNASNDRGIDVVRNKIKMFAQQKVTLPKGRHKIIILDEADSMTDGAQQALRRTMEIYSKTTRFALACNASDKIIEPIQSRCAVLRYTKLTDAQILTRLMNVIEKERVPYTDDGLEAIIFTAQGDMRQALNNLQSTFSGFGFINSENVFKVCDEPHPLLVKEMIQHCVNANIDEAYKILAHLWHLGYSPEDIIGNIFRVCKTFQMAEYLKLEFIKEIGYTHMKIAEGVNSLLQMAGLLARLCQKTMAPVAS
UniProt Q9P258, whole entry, looked up: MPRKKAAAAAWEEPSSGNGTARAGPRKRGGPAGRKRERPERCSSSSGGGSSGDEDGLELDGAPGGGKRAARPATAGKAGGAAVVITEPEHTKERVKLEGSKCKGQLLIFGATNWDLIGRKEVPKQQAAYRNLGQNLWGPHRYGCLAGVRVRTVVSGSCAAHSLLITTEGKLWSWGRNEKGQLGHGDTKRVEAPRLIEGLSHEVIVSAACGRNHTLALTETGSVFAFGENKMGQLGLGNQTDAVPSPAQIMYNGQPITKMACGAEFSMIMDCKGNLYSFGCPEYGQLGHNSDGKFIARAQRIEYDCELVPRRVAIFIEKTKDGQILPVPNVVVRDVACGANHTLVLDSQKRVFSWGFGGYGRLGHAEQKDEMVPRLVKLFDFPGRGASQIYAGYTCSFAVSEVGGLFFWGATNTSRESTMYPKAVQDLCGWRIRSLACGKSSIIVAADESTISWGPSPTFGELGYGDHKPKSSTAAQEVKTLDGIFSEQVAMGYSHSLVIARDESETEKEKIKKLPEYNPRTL
UniProt Q9Y3B8: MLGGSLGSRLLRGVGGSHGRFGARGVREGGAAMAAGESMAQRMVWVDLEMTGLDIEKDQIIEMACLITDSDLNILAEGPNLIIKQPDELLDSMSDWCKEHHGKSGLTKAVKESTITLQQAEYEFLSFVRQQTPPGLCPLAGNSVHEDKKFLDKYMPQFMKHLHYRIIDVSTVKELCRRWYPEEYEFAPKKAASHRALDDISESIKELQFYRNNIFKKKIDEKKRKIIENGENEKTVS
UniProt P35249, whole entry, looked up: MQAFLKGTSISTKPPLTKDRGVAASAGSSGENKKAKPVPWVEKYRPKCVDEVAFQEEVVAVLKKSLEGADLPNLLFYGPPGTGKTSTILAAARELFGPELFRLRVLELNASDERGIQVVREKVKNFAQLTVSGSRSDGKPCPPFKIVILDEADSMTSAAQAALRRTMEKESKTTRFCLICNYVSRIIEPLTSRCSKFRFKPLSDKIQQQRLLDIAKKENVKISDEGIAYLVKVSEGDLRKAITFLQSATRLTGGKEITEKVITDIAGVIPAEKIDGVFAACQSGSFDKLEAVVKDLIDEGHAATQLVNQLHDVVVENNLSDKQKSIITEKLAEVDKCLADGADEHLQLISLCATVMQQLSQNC
UniProt Q96D71: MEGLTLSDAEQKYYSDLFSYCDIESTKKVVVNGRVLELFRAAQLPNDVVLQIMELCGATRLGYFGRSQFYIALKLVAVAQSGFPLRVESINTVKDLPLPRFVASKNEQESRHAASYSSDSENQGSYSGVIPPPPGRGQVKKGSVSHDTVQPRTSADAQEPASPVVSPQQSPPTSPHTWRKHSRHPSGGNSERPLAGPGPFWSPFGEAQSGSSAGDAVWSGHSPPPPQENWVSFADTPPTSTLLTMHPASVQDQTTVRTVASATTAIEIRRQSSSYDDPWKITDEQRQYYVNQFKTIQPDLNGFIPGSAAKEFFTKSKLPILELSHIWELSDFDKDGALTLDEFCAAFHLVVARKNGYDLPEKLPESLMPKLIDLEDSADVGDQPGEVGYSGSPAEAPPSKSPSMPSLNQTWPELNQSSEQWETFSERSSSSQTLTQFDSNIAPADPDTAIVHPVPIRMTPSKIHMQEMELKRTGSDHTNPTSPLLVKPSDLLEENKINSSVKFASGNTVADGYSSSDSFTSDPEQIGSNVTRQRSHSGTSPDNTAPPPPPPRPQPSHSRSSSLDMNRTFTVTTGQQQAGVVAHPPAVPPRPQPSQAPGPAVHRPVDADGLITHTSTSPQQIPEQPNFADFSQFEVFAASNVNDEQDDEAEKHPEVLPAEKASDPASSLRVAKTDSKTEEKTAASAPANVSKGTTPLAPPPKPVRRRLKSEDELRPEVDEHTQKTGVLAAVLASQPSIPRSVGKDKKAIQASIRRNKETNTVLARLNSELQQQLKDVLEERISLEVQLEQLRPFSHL
UniProt Q9BWF3: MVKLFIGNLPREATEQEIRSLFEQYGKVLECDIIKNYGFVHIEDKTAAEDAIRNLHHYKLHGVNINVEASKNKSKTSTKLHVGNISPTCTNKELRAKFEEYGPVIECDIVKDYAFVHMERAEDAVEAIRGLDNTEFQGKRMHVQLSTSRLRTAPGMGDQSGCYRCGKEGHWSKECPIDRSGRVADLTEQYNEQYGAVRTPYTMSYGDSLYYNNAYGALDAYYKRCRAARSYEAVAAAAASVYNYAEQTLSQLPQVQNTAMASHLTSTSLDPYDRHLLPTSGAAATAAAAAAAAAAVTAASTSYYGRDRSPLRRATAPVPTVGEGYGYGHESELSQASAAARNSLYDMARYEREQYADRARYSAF
UniProt Q9H0Z9: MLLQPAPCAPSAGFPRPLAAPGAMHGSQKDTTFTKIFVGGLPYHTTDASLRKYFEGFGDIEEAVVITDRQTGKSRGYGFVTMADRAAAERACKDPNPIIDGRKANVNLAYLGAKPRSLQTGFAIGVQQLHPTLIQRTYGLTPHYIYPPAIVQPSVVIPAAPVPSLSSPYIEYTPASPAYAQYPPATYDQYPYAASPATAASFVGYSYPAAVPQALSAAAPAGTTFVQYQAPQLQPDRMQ
UniProt Q9Y2P8: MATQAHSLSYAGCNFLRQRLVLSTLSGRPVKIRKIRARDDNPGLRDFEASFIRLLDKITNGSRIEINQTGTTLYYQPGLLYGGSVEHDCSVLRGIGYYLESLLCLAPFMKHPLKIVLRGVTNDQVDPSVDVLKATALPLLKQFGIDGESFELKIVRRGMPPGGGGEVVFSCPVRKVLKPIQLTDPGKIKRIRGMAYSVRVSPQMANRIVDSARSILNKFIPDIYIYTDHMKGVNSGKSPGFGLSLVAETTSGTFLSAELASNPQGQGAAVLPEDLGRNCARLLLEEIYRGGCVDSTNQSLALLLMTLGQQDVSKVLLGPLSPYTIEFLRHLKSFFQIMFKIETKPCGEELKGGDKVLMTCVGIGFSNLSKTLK
UniProt Q969G6: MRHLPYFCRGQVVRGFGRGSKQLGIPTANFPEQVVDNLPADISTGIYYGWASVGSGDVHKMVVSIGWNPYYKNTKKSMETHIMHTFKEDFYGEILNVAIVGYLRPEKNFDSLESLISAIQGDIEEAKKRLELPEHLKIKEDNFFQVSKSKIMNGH
UniProt O15258: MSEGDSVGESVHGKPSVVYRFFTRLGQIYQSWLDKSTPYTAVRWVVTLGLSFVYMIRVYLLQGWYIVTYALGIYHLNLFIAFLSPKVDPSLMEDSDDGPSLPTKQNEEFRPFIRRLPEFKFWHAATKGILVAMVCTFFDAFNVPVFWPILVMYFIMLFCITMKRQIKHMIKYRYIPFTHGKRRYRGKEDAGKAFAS
UniProt Q96NA2: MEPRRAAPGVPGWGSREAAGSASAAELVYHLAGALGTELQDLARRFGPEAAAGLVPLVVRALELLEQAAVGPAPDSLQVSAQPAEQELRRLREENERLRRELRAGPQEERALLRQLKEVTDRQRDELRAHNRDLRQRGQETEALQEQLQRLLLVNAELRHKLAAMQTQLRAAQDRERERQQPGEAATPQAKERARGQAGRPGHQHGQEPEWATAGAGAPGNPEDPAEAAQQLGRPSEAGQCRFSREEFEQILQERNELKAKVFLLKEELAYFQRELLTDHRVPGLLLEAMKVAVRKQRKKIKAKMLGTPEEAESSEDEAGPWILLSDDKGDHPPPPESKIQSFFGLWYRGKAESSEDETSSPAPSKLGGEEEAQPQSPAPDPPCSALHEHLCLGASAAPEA
UniProt Q9BTD8: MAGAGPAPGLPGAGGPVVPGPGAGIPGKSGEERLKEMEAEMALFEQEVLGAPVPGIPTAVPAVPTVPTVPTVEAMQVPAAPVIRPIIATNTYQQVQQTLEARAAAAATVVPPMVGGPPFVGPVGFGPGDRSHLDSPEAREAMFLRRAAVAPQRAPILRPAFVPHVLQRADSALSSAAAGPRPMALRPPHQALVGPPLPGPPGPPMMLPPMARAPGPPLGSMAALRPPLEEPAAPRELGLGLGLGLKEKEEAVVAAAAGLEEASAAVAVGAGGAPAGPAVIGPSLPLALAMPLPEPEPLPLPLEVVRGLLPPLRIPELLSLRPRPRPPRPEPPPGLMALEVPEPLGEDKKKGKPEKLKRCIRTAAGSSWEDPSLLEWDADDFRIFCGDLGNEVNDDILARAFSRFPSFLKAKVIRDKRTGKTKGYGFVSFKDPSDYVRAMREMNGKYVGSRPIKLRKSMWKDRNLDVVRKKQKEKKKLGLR
UniProt Q8NBN7: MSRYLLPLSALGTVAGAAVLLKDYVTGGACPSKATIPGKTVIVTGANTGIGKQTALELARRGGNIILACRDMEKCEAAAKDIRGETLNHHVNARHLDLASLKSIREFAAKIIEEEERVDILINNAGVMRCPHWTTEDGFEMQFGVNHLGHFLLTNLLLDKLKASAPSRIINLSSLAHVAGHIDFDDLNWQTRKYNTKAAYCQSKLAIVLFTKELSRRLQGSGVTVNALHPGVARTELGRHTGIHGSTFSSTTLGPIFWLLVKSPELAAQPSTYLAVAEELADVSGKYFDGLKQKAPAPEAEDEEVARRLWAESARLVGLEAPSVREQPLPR

Assays:
Assay in all cases: log2 fold change, soluble protein after heating vs DMSO (PISA); higher = thermal stabilisation; K562 cells, 10 uM, 30 min; active = over 0.2 and 3.5 SD of the protein, either way, in both replicates (recomputed)
[1] = compound: C1=CC=C(C=C1)[C@H](COC2=CC3=C(C=C2)NC(=O)N3)NC(=O)C4=CC=CN(C4=O)CC5=CC(=C(C=C5)F)F
Method in brief: (§1)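 For each measurement, 10 μM compound was applied for 30 min to K562 cells at 2×10^6 cells/mL. Aliquots were heated for 3 min across 48°C-58°C, pooled, and extracted in PBS with 0.5% NP-40 at 4°C; the supernatant after 21,000xg for 90 min was soluble protein. This was quantified by TMTpro 16plex LC-MS/MS with channel sums equalised, and thermal stability was reported relative to control samples from duplicates, on a log2 fold-change scale.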

[2] = compound: CC1=C(SC2=C1C(=N[C@H](C3=NN=C(N32)C)CC(=O)N)C4=CC=C(C=C4)Cl)C
Method in brief: as §1

[3] = compound: CC1=C2C(=CC=C1)N=C(N(C2=O)C3=CC=CC=C3C)CN4C=NC5=C(N=CN=C54)N
Method in brief: as §1

[4] = compound: Cc1sc2c(c1C)C(c1ccc(Cl)cc1)=N[C@@H](CC(=O)OC(C)(C)C)c1nnc(C)n1-2
Method in brief: as §1

[5] = compound: c1ccc([C@@H]2C[C@H]2NC2CCNCC2)cc1
Method in brief: as §1

| Target | log2 fold change [1] | log2 fold change [2] | log2 fold change [3] | log2 fold change [4] | log2 fold change [5] |
| --- | --- | --- | --- | --- | --- |
| RIOK2 (UniProt Q9BVS4) | inactive: 0.034 | inactive: -0.038 | inactive: -0.119 | inactive: 0.116 | inactive: -0.009 |
| RFX1 (UniProt P22670) | inactive: -0.018 | inactive: 0.027 | inactive: 0.003 | inactive: -0.032 | inactive: -0.015 |
| RFXAP (UniProt O00287) | inactive: -0.008 | inactive: 0.008 | inactive: -0.013 | inactive: -0.038 | inactive: 0.003 |
| RNF2 (UniProt Q99496) | inactive: 0.067 | inactive: 0.014 | inactive: 0.153 | inactive: 0.064 | inactive: 0.085 |
| REEP5 (UniProt Q00765) | inactive: 0.027 | inactive: 0.048 | inactive: 0.061 | inactive: -0.023 | inactive: -0.001 |
| RNASE4 (UniProt P34096) | inactive: -0.093 | inactive: -0.203 | inactive: 0.1 | inactive: 0.063 | inactive: -0.071 |
| RNF181 (UniProt Q9P0P0) | inactive: -0.012 | inactive: 0.041 | inactive: 0.026 | inactive: -0.044 | inactive: -0.033 |
| RFX5 (UniProt P48382) | inactive: -0.091 |  |  |  |  |
| REL (UniProt Q04864) | inactive: 0.058 | inactive: 0.048 | inactive: 0.046 | inactive: 0.037 | inactive: 0.065 |
| RERE (UniProt Q9P2R6) | inactive: -0.051 |  |  |  |  |
| RFX3 (UniProt P48380) | inactive: -0.117 |  |  |  |  |
| RFC2 (UniProt P35250) | inactive: -0.019 | inactive: 0.039 | inactive: 0.005 | inactive: -0.005 | inactive: -0.015 |
| RCC2 (UniProt Q9P258) | inactive: -0.01 | inactive: 0.047 | inactive: 0.095 | inactive: -0.013 | inactive: -0.015 |
| RNF138 (UniProt Q8WVD3) | inactive: -0.026 | inactive: -0.223 | inactive: 0.012 | inactive: -0.059 | inactive: 0.008 |
| RMND5A (UniProt Q9H871) | inactive: 0.035 | inactive: 0.008 | inactive: 0.034 | inactive: 0.024 | inactive: -0.019 |
| REXO2 (UniProt Q9Y3B8) | inactive: 0.012 | inactive: 0.037 | inactive: 0.023 | inactive: -0.005 | inactive: -0.008 |
| RFC4 (UniProt P35249) | inactive: -0.017 | inactive: 0.016 | inactive: 0.025 | inactive: -0.048 | inactive: -0.02 |
| RNF14 (UniProt Q9UBS8) | inactive: -0.031 | inactive: -0.005 | inactive: -0.048 | inactive: -0.013 | inactive: 0.03 |
| RMDN1 (UniProt Q96DB5) | inactive: 0.005 | inactive: 0.069 | inactive: 0.054 | inactive: -0.06 | inactive: -0.022 |
| REPS1 (UniProt Q96D71) | inactive: 0.065 | inactive: -0.032 | inactive: 0.067 | inactive: 0.184 | inactive: -0.021 |
| RHOG (UniProt P84095) | inactive: 0.024 | inactive: -0.08 | inactive: 0.028 | inactive: -0.029 | inactive: -0.076 |
| RFFL (UniProt Q8WZ73) | inactive: -0.05 | inactive: -0.053 | inactive: -0.209 | inactive: 0.086 | inactive: 0.01 |
| RDX (UniProt P35241) | inactive: -0.016 | inactive: -0.003 | inactive: -0.023 | inactive: 0.002 | inactive: 0.017 |
| RNASEH2B (UniProt Q5TBB1) | inactive: -0.099 | inactive: 0.079 | inactive: 0.129 | inactive: -0.047 | inactive: -0.094 |
| RNF167 (UniProt Q9H6Y7) | inactive: -0.025 | inactive: -0.011 | inactive: 0.002 | inactive: -0.017 | inactive: 0.001 |
| RCSD1 (UniProt Q6JBY9) | inactive: 0.031 | inactive: -0.028 | inactive: 0.024 | inactive: 0.042 | inactive: 0.066 |
| RCC1L (UniProt Q96I51) | inactive: -0.001 | inactive: 0.103 | inactive: 0.018 | inactive: -0.018 | inactive: 0.019 |
| RCC1 isoform 2 (UniProt P18754) | inactive: -0.175 | inactive: 0.096 | inactive: 0.176 | inactive: 0.012 | inactive: -0.058 |

No new results follow: an excerpt of the list.

| Target | log2 fold change [1] | log2 fold change [2] | log2 fold change [3] | log2 fold change [4] | log2 fold change [5] |
| --- | --- | --- | --- | --- | --- |
| RIOK2 (UniProt Q9BVS4) | inactive: 0.034 | inactive: -0.038 | inactive: -0.119 | inactive: 0.116 | inactive: -0.009 |
| RFX1 (UniProt P22670) | inactive: -0.018 | inactive: 0.027 | inactive: 0.003 | inactive: -0.032 | inactive: -0.015 |

(listing goes on)

| Target | log2 fold change [1] | log2 fold change [2] | log2 fold change [3] | log2 fold change [4] | log2 fold change [5] |
| --- | --- | --- | --- | --- | --- |
| RBM4 (UniProt Q9BWF3) | inactive: -0.029 | inactive: -0.074 | inactive: -0.011 | inactive: 0.009 | inactive: 0.073 |
| RBM38 (UniProt Q9H0Z9) | inactive: 0.051 | inactive: 0.139 | inactive: -0.072 | inactive: -0.058 | inactive: -0.07 |
| RIDA (UniProt P52758) | inactive: 0.003 | inactive: 0.01 | inactive: -0.027 | inactive: -0.067 | inactive: 0.012 |
| RCL1 (UniProt Q9Y2P8) | inactive: 0.055 | inactive: -0.181 | inactive: -0.222 | inactive: 0.283 | inactive: 0 |
| RBMX (UniProt P38159) | inactive: 0.101 | inactive: -0.17 | inactive: -0.112 | inactive: 0.031 | inactive: 0.054 |
| RBPJ (UniProt Q06330) | inactive: 0.015 | inactive: 0.002 | inactive: 0.004 | inactive: 0.04 | inactive: 0.018 |
| RNASET2 (UniProt O00584) | inactive: 0.037 | inactive: -0.038 | inactive: 0.063 | inactive: -0.013 | inactive: 0.012 |
| REEP6 (UniProt Q96HR9) | inactive: 0.038 | inactive: 0.065 | inactive: -0.02 | inactive: -0.007 | inactive: 0.052 |
| RFK (UniProt Q969G6) | inactive: 0.024 | inactive: 0.028 | inactive: -0.018 | inactive: -0.017 | inactive: -0.002 |
| RIOK1 (UniProt Q9BRS2) | inactive: 0.015 | inactive: -0.044 | inactive: -0.018 | inactive: 0.032 | inactive: 0.024 |
| RBM39 (UniProt Q14498) | inactive: 0.015 | inactive: -0.004 | inactive: -0.02 | inactive: 0.019 | inactive: 0.158 |
| RFC5 (UniProt P40937) | inactive: -0.003 | inactive: 0.032 | inactive: -0.006 | inactive: 0.001 | inactive: -0.052 |
| RER1 (UniProt O15258) | inactive: 0.005 | inactive: -0.005 | inactive: -0.07 | inactive: -0.045 | inactive: 0.009 |
| RFC3 (UniProt P40938) | inactive: -0.005 | inactive: 0.028 | inactive: 0.029 | inactive: -0.019 | inactive: -0.074 |
| RHOT1 isoform 3 (UniProt Q8IXI2) | inactive: 0.003 | inactive: 0.033 | inactive: 0.046 | inactive: 0.022 | inactive: 0.008 |
| RNF123 isoform 2 (UniProt Q5XPI4) | inactive: -0.02 | inactive: -0.012 | inactive: 0.041 | inactive: -0.038 | inactive: 0.002 |
| RECQL (UniProt P46063) | inactive: -0.012 | inactive: 0.087 | inactive: 0.015 | inactive: -0.029 | inactive: -0.02 |
| RILP (UniProt Q96NA2) | inactive: 0.031 | inactive: 0.055 | inactive: 0.026 | inactive: -0.003 | inactive: -0.014 |
| RHOB (UniProt P62745) | inactive: -0.057 | inactive: -0.201 | inactive: -0.057 | inactive: -0.092 | inactive: 0.032 |
| RHOA (UniProt P61586) | inactive: 0.01 | inactive: -0.058 | inactive: -0.095 | inactive: -0.041 | inactive: 0.021 |
| RNF146 (UniProt Q9NTX7) | inactive: -0.113 | inactive: -0.053 | inactive: 0.028 | inactive: -0.068 | inactive: -0.003 |
| RETSAT (UniProt Q6NUM9) | inactive: 0.028 | inactive: 0.114 | inactive: 0.119 | inactive: -0.15 | inactive: 0.042 |
| RNF126 (UniProt Q9BV68) | inactive: -0.031 | inactive: 0.028 | inactive: 0.015 | inactive: 0.018 | inactive: 0.048 |
| RCCD1 (UniProt A6NED2) | inactive: -0.064 | inactive: -0.007 | inactive: 0.021 | inactive: -0.012 | inactive: 0.005 |
| RBM42 (UniProt Q9BTD8) | inactive: 0.049 | inactive: -0.186 | inactive: -0.065 | inactive: 0.057 | inactive: 0.024 |
| RCOR3 isoform 3 (UniProt Q9P2K3) | inactive: -0.139 | inactive: 0.087 | inactive: 0.111 | inactive: -0.06 | active: 1.27 |
| RDH13 (UniProt Q8NBN7) | inactive: -0.013 | inactive: 0.052 | inactive: 0.032 | inactive: 0.013 | inactive: -0.062 |
